In assay [1] the target is T1, Topoisomerase 3β (TOP3B), endogenous (human (endogenous in HEK293 and HCT116)) (UniProt O95985).
T1 sequence: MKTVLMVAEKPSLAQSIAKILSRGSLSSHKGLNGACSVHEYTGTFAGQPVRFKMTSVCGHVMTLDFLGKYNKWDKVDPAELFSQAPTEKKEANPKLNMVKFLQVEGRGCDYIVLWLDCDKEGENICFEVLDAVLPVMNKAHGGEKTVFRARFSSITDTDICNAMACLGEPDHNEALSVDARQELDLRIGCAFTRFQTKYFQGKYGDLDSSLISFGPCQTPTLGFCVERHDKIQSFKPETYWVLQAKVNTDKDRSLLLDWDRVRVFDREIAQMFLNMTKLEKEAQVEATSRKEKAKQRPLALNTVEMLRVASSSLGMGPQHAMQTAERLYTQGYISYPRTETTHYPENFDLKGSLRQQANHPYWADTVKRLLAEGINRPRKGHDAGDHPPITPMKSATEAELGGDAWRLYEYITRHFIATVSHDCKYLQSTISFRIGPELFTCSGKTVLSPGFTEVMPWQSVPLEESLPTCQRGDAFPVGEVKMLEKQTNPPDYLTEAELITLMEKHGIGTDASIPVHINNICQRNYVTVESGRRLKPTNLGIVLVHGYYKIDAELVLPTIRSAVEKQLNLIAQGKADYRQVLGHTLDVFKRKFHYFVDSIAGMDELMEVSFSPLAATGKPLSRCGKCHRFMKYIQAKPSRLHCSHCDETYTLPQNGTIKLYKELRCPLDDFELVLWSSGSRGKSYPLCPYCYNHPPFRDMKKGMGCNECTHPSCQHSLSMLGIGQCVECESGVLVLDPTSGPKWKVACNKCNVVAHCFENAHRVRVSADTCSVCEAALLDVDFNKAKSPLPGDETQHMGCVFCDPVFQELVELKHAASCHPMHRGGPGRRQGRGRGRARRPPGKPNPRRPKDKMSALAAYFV
The assay is described as follows: affinity purification with mass spectrometry; endogenous TOP3B immunoprecipitated from HEK293 cells, LC-MS/MS; hits with PSM value > 10.

Amino acid sequences for entries named in this document (tags omitted).
UniProt Q93009: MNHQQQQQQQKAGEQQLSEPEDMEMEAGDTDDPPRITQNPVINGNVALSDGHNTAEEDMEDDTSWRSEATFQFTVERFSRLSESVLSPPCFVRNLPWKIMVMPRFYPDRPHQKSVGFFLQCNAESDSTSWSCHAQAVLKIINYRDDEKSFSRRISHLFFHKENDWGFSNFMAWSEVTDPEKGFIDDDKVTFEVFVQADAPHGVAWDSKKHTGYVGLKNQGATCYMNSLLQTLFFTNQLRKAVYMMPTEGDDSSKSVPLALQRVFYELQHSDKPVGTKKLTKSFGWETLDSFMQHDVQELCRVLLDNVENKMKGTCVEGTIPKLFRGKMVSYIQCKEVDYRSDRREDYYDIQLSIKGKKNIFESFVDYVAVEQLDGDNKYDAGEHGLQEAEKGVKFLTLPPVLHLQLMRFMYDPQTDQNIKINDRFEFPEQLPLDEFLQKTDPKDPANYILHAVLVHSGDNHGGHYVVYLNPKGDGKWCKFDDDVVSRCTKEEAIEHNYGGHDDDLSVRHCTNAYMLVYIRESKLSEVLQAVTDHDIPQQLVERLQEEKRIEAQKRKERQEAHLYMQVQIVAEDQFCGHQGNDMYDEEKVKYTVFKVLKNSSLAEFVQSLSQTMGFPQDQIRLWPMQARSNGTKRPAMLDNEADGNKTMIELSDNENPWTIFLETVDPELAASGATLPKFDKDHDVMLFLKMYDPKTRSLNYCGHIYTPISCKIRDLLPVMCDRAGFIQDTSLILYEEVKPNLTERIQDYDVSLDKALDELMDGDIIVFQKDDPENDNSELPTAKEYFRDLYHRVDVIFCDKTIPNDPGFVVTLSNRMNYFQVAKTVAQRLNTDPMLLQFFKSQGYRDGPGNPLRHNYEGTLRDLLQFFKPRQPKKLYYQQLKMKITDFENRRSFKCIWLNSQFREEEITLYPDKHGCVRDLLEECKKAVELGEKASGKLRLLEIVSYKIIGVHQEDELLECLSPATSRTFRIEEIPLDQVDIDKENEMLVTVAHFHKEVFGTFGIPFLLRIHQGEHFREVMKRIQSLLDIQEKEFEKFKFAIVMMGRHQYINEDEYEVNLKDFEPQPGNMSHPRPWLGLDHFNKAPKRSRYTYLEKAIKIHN
UniProt P09874: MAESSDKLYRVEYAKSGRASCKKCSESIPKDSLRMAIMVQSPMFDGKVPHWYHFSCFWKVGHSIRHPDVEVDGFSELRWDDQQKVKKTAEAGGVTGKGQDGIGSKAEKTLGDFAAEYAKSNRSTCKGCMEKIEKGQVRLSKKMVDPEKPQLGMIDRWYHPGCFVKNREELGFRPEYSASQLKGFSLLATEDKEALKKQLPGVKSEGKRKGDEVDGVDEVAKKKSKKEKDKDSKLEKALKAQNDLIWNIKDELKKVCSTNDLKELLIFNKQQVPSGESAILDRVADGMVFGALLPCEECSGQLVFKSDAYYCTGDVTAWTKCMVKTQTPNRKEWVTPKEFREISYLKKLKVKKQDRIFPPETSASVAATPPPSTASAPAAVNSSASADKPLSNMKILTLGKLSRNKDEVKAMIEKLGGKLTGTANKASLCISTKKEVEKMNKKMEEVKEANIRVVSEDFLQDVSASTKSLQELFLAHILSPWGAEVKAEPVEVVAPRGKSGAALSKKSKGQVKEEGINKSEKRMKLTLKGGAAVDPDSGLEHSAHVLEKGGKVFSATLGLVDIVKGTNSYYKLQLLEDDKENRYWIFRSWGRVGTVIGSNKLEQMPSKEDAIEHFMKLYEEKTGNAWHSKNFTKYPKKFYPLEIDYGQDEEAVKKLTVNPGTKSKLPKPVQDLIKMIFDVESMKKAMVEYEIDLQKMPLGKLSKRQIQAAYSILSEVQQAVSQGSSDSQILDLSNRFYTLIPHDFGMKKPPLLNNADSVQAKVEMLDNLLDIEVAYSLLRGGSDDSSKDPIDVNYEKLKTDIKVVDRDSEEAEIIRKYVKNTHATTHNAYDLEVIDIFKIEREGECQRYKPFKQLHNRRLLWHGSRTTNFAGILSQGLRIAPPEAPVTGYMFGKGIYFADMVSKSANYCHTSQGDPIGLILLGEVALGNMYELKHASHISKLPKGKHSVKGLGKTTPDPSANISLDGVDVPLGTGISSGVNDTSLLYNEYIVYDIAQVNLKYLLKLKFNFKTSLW
UniProt P18887: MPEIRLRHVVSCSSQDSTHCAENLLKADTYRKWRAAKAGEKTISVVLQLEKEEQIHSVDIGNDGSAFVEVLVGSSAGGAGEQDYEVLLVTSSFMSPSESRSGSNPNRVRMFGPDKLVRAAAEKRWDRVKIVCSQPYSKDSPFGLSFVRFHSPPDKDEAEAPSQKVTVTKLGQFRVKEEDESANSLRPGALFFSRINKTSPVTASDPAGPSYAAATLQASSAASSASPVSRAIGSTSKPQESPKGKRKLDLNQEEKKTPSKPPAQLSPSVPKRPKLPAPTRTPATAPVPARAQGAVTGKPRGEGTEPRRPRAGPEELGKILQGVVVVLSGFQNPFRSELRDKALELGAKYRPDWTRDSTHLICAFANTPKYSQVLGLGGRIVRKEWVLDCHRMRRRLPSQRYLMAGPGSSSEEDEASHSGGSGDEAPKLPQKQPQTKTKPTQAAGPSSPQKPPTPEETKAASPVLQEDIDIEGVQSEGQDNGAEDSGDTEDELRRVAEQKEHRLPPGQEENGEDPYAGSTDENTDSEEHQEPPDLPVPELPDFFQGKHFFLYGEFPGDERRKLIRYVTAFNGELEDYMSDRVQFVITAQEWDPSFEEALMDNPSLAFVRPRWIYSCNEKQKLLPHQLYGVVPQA

The target in assay [2] is T1, Topoisomerase 3β (TOP3B), endogenous (human (endogenous in HEK293 and HCT116)). The assay can be described thus: affinity purification with mass spectrometry; TOP3B IP-MS in the absence of TDRD3 (Supplementary Fig. 5a); cells not named.

No constants are given. Whether binding was seen depends on the method and setting. Binding seen in cells or lysates may run through a third protein. These calls come from enrichment with a bait or labelling near it, and not all partners need be listed.

In the case of “USP7, endogenous (from UniProt Q93009 1-1102) (enzyme)”, in assay [1], the binding result is on record as “binds”.

Take “PARP1, endogenous (from UniProt P09874 1-1014) (enzyme)”: the binding entry in assay [2] is “binds”.

“XRCC1, endogenous (from UniProt P18887 1-633)”: the binding entry in assay [2] is reported as “binds”.

B1: LIG3, endogenous (enzyme, UniProt P49916 43-1009)
chain: LLHGHPLFLRRKPVLSFQGSHLRSRATYLVFLPGLHVGLCSGPCEMAEQRFCVDYAKRGTAGCKKCKEKIVKGVCRIGKVVPNPFSESGGDMKEWYHIKCMFEKLERARATTKKIEDLTELEGWEELEDNEKEQITQHIADLSSKAAGTPKKKAVVQAKLTTTGQVTSPVKGASFVTSTNPRKFSGFSAKPNNSGEAPSSPTPKRSLSSSKCDPRHKDCLLREFRKLCAMVADNPSYNTKTQIIQDFLRKGSAGDGFHGDVYLTVKLLLPGVIKTVYNLNDKQIVKLFSRIFNCNPDDMARDLEQGDVSETIRVFFEQSKSFPPAAKSLLTIQEVDEFLLRLSKLTKEDEQQQALQDIASRCTANDLKCIIRLIKHDLKMNSGAKHVLDALDPNAYEAFKASRNLQDVVERVLHNAQEVEKEPGQRRALSVQASLMTPVQPMLAEACKSVEYAMKKCPNGMFSEIKYDGERVQVHKNGDHFSYFSRSLKPVLPHKVAHFKDYIPQAFPGGHSMILDSEVLLIDNKTGKPLPFGTLGVHKKAAFQDANVCLFVFDCIYFNDVSLMDRPLCERRKFLHDNMVEIPNRIMFSEMKRVTKALDLADMITRVIQEGLEGLVLKDVKGTYEPGKRHWLKVKKDYLNEGAMADTADLVVLGAFYGQGSKGGMMSIFLMGCYDPGSQKWCTVTKCAGGHDDATLARLQNELDMVKISKDPSKIPSWLKVNKIYYPDFIVPDPKKAAVWEITGAEFSKSEAHTADGISIRFPRCTRIRDDKDWKSATNLPQLKELYQLSKEKADFTVVAGDEGSSTTGGSSEENKGPSGSAVSRKAPSKPSASTKKAEGKLSNSNSKDGNMQTAKPSAMKVGEKLATKSSPVKVGEKRKAADETLCQTKVLLDIFTGVRLYLPPSTPDFSRLRRYFVAFDGDLVQEFDMTSATHVLGSRDKNPAAQQVSPEWIWACIRKRRLVAPC
As to B1, the binding entry in assay [2] is “binds”.

B2: USP39, endogenous (protein, UniProt Q53GS9 1-565)
chain: MSGRSKRESRGSTRGKRESESRGSSGRVKRERDREREPEAASSRGSPVRVKREFEPASAREAPASVVPFVRVKREREVDEDSEPEREVRAKNGRVDSEDRRSRHCPYLDTINRSVLDFDFEKLCSISLSHINAYACLVCGKYFQGRGLKSHAYIHSVQFSHHVFLNLHTLKFYCLPDNYEIIDSSLEDITYVLKPTFTKQQIANLDKQAKLSRAYDGTTYLPGIVGLNNIKANDYANAVLQALSNVPPLRNYFLEEDNYKNIKRPPGDIMFLLVQRFGELMRKLWNPRNFKAHVSPHEMLQAVVLCSKKTFQITKQGDGVDFLSWFLNALHSALGGTKKKKKTIVTDVFQGSMRIFTKKLPHPDLPAEEKEQLLHNDEYQETMVESTFMYLTLDLPTAPLYKDEKEQLIIPQVPLFNILAKFNGITEKEYKTYKENFLKRFQLTKLPPYLIFCIKRFTKNNFFVEKNPTIVNFPITNVDLREYLSEEVQAVHKNTTYDLIANIVHDGKPSEGSYRIHVLHHGTGKWYELQDLQVTDILPQMITLSEAYIQIWKRRDNDETNQQGA
With B2, the binding result in assay [1] is given as “binds”.

For the origin of these results see PMC10657456.
